Data on one compound can be found in publication PMC2637922, “Active-Site Inhibitors of mTOR Target Rapamycin-Resistant Outputs of mTORC1 and mTORC2” (PLoS Biology, 2009).

By UniProt entry, the sequences of proteins in these tests, tags left out. Residues count along the entry.
UniProt O60674, 849-1132 limits assumed: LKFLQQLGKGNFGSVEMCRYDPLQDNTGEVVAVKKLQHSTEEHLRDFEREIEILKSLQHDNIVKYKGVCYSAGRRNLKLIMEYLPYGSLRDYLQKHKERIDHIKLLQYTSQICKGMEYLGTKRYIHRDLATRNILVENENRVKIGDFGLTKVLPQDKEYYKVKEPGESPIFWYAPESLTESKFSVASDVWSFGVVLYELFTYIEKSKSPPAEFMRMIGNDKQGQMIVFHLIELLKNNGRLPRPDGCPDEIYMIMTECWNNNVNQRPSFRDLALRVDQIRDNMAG
UniProt P05771, 1-673 isoform P05771-2: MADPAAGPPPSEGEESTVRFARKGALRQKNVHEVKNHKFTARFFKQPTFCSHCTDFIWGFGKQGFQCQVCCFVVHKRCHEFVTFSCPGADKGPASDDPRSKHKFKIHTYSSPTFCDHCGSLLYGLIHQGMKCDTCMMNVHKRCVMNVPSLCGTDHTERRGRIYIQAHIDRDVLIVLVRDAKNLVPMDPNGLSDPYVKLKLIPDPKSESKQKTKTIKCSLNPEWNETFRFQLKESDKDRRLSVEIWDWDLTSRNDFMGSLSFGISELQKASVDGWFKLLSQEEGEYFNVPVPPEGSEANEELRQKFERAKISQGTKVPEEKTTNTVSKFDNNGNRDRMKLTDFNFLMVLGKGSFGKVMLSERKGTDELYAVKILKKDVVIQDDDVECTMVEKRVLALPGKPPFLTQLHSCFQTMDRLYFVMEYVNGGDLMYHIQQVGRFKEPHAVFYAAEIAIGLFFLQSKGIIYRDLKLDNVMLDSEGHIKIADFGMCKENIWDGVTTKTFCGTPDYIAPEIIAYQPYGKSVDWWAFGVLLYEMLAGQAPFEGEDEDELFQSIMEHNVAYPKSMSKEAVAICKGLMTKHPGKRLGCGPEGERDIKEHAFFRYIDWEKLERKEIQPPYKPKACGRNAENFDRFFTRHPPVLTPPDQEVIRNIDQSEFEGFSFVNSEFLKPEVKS
UniProt P05771, whole entry: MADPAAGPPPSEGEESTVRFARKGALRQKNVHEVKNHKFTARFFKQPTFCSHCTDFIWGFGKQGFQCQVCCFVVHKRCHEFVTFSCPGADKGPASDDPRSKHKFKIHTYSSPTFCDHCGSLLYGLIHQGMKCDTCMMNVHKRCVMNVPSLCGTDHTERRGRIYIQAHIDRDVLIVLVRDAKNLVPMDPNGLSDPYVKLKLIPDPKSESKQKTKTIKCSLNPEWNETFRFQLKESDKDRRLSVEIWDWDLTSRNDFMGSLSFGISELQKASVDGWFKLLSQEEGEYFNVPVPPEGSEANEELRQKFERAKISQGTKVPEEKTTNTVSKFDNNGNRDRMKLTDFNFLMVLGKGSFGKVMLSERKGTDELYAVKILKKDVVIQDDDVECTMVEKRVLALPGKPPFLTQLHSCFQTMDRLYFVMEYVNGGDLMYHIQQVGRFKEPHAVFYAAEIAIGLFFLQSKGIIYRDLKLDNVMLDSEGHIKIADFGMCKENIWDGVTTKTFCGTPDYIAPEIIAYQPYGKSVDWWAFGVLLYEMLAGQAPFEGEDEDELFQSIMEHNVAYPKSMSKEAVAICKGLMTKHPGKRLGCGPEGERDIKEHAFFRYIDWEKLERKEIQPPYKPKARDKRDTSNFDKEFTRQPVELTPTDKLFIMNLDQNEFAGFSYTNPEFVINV
UniProt P05771, 2-621 limits assumed: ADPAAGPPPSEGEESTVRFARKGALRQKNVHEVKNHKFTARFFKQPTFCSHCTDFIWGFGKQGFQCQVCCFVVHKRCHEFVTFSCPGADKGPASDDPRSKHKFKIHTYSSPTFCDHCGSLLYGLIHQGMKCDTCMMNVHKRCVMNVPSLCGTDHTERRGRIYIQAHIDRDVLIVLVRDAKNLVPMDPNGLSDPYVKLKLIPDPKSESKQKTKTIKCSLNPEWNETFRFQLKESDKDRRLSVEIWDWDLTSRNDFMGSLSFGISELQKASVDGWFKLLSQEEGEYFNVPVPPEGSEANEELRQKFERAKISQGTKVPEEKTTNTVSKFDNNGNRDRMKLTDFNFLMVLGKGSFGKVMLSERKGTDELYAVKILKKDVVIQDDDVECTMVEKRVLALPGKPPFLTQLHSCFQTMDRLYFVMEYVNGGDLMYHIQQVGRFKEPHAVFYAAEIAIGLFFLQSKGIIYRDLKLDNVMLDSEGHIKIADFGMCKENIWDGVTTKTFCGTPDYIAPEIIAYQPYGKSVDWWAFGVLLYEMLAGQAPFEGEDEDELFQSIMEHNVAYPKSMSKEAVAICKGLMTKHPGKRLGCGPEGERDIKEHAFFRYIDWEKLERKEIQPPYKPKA
UniProt P07949, 29-1114, species assumed: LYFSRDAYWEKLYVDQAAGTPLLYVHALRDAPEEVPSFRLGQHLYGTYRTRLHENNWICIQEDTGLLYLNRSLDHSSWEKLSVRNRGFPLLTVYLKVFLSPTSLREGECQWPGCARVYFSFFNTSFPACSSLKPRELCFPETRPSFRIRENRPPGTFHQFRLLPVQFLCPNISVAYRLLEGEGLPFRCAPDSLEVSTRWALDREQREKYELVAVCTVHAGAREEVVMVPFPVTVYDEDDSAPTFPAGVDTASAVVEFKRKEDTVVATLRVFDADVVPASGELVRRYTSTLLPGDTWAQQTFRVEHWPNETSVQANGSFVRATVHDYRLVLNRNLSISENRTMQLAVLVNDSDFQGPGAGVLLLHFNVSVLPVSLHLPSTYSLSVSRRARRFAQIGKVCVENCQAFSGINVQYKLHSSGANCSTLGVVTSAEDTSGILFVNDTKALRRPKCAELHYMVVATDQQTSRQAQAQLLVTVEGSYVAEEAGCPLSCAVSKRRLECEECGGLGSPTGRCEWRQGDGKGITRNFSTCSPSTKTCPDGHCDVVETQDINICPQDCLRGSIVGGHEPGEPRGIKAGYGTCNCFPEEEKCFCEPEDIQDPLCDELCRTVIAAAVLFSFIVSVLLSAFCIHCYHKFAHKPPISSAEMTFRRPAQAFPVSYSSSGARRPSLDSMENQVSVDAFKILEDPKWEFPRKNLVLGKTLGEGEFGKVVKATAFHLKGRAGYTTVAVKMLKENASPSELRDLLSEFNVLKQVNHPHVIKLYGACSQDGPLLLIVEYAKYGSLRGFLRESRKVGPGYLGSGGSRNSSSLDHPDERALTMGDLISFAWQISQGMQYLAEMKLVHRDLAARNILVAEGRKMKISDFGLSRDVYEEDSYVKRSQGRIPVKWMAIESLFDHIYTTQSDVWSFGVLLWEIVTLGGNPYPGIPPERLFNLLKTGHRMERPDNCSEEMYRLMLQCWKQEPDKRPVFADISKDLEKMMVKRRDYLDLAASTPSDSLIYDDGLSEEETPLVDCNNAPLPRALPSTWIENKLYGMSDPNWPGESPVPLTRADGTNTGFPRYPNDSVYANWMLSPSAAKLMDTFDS

The target in one assay is JAK2 (Homo sapiens, UniProt O60674). The experiment in a line: biochemical.
The subject of a further assay is PKC-alpha. To be noted: concentration 100-fold higher than mTOR IC50; cited from earlier work.
The target of another assay is PKCβII (Homo sapiens, UniProt P05771). In words: biochemical.
Assay [1] deals with 219 purified protein kinases. The conditions noted are these: concentration 100-fold higher than mTOR IC50; cited from earlier work.
For the next assay, the target named is PKCβI (Homo sapiens, UniProt P05771). In words: biochemical.
Assay [2] has as its system p4EBP1 in wild-type and SIN1−/− MEFs. The conditions noted are these: shorter exposures, Figure S2B.
The next assay relates to JAK2 (V617F). The conditions noted are these: concentration 100-fold higher than mTOR IC50; cited from earlier work.
The next assay concerns the target PKC-beta (Homo sapiens, UniProt P05771). The conditions noted are these: concentration 100-fold higher than mTOR IC50; cited from earlier work.
Another assay addresses RET (Homo sapiens, UniProt P07949). The conditions noted are these: concentration 100-fold higher than mTOR IC50; cited from earlier work.
Assay [3] has as its system cap-dependent and IRES-dependent translation in primary MEFs. In words: Bicistronic reporter assay. It counts as cell-based, mouse.
Another assay deals with PKCα (Homo sapiens, UniProt P17252). The experiment in a line: biochemical.

With `CC(C)n1nc(-c2cc3cc(O)ccc3[nH]2)c2c(N)ncnc21` [PP242], the IC50 was 110 nM on JAK2; 185 nM on PKCβII; 198 nM against PKCβI; 49 nM at PKCα (IC50 PKCα, Figure 1, 10 μM ATP); 50 nM at PKCα (in vitro IC50 PKC-alpha, purified protein). The “inhibition of PKC-alpha in kinase panel” value in the assay on PKC-alpha is given as “more than 80%”. Moreover, the “effect on most of 219 protein kinases” value in [1] is on record as “unaffected”. Also, the “p4EBP1 inhibition in SIN1−/− versus wild-type MEFs” value in [2] is listed as “inhibits p4EBP1 with the same potency in both cells”. Further, in the assay with JAK2 (V617F), the “inhibition of JAK2 (V617F) in kinase panel” value is “more than 80%”. Further, the “inhibition of PKC-beta in kinase panel” value on PKC-beta was “more than 80%”. Moreover, the “inhibition of RET in kinase panel” value on RET is given as “more than 80%”. For the same compound, the “IRES-dependent (firefly) luciferase activity” value in assay [3] is reported as “not significantly different from control”.
